Values of other authors in patent EP0090368A1, “Anthelmintic preparations” (priority 1982, dated 1983).
Like-named read-outs stand apart in the source and are kept apart here. The name of at least one read-out is uncertain.

How the values were obtained:
[1] = cattle; cited from earlier work
[2] = sheep; cited from earlier work

Compound: COC(=O)Nc1nc2ccc(Sc3ccccc3)cc2[nH]1 [Fenbendazole, 5-Phenyl-thio-2-benzimidazolecarbamic acid methylester]
- safety margin [1]: 50 times the recommended dose
- safety margin [2]: 1000 times the recommended dose
